# Measurements reported in the supplement of paper PMC10032668.
# Amino acid sequences for entries named in this document (tags omitted).
# ATP6V0D1, P61421, UniProt P61421, whole entry: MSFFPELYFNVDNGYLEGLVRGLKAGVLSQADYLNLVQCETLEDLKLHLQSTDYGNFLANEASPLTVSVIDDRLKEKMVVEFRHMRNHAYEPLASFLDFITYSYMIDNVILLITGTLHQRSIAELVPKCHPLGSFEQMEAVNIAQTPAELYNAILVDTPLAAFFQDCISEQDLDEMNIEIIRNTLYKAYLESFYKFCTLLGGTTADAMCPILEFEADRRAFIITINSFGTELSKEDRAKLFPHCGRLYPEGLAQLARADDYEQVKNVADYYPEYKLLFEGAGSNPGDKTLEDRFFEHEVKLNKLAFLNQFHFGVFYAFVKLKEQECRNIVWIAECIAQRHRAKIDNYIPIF
# CBFB, Q13951, UniProt Q13951, whole entry: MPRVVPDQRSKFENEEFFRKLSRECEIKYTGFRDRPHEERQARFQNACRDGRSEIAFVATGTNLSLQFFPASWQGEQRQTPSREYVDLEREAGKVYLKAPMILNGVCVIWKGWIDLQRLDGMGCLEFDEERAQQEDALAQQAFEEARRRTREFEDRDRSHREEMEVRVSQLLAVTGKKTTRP
# COIL, P38432, UniProt P38432, whole entry: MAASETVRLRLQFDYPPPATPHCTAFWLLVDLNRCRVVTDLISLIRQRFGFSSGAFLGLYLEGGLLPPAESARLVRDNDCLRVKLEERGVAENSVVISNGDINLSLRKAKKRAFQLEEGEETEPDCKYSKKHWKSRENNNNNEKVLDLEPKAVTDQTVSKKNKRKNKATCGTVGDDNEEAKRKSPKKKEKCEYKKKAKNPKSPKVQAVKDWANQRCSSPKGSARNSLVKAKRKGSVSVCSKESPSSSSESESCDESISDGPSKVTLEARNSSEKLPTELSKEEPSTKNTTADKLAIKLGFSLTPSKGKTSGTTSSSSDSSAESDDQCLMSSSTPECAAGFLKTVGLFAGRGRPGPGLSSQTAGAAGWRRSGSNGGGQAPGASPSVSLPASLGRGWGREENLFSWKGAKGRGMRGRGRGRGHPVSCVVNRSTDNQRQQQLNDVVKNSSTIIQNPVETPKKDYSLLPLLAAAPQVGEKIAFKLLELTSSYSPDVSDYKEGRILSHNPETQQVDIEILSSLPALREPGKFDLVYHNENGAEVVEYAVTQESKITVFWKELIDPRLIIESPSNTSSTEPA
# DCTN1, Q14203, UniProt Q14203, whole entry: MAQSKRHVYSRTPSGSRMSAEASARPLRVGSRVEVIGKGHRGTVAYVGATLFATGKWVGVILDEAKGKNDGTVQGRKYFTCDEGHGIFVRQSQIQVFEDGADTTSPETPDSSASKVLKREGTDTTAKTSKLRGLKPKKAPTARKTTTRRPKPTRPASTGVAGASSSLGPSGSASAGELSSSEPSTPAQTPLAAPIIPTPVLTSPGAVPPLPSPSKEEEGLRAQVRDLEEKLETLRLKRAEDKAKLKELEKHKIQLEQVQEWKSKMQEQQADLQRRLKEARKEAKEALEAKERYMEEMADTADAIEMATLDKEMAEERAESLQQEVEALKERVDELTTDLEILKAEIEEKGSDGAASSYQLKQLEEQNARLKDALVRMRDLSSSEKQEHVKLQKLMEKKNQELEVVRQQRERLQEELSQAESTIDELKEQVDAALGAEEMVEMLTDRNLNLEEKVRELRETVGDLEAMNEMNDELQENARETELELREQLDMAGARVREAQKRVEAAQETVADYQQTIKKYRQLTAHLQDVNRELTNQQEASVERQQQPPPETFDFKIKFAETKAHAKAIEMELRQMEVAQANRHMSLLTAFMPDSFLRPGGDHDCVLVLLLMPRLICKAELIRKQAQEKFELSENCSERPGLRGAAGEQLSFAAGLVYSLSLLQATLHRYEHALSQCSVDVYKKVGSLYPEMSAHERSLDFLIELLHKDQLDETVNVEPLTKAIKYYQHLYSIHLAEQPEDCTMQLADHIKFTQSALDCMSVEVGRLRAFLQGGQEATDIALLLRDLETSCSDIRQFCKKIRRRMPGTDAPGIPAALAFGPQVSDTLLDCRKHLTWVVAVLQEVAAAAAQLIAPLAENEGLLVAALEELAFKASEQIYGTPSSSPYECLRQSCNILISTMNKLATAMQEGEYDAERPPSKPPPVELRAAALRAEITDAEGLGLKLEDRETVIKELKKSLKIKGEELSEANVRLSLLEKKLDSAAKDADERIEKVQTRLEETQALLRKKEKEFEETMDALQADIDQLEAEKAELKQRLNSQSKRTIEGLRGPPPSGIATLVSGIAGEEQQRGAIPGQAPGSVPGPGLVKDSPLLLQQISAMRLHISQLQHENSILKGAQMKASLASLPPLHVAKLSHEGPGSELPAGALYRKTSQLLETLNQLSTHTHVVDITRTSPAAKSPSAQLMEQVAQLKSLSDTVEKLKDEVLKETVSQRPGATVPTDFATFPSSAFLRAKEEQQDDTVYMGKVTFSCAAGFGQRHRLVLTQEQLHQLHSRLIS
# DDX54, Q8TDD1, UniProt Q8TDD1, whole entry: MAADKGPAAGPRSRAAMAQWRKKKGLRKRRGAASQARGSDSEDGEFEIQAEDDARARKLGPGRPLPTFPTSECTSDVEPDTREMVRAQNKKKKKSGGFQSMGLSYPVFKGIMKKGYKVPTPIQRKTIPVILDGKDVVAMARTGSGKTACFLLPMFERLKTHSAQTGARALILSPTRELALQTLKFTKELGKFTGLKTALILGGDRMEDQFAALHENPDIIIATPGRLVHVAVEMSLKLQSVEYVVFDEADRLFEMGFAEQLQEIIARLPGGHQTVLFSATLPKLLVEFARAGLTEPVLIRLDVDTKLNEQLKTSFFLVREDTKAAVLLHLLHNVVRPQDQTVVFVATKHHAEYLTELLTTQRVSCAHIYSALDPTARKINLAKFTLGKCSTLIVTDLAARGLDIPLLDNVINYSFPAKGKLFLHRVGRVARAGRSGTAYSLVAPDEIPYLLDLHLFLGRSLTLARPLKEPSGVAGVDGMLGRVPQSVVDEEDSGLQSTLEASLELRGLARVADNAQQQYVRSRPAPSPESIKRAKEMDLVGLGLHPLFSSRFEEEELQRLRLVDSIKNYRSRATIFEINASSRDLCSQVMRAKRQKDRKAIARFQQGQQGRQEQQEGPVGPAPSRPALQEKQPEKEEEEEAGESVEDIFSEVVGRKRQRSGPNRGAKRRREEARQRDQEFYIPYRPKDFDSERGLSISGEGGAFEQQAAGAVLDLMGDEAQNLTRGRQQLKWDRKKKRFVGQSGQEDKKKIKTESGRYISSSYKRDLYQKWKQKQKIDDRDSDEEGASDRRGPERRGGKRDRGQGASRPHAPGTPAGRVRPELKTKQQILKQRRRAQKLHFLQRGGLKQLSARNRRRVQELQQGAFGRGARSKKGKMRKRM
# EIF2B4, Q9UI10, UniProt Q9UI10, whole entry: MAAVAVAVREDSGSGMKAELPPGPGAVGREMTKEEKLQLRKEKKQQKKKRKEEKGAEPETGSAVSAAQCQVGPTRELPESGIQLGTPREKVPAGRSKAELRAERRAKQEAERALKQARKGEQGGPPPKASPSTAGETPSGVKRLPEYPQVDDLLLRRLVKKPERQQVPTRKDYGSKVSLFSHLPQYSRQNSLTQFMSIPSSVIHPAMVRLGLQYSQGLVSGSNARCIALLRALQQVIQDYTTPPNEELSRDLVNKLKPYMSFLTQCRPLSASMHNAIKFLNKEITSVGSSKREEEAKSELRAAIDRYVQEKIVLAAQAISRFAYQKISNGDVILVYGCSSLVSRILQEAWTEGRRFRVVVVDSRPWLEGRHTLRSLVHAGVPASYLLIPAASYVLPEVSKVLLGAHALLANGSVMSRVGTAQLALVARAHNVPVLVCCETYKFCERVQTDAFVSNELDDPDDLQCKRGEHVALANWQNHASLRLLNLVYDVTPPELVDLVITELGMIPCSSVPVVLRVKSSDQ
# LRPAP1, P30533, UniProt P30533, whole entry: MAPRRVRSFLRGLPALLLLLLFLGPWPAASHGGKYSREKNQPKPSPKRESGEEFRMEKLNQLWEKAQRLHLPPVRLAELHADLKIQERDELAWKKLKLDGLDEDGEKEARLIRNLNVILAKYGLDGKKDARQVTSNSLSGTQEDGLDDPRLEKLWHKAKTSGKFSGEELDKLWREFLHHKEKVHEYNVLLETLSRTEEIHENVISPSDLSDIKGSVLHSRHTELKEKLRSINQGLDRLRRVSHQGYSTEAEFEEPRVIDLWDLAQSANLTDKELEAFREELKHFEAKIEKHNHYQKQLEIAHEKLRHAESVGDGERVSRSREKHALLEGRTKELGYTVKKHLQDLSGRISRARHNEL
# NDUFA13, Q9P0J0, UniProt Q9P0J0, whole entry: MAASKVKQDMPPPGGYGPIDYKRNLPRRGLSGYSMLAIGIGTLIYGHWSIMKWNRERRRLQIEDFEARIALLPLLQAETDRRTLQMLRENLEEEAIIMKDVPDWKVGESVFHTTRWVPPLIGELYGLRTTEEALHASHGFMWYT
# NEDD8, Q15843, UniProt Q15843, whole entry: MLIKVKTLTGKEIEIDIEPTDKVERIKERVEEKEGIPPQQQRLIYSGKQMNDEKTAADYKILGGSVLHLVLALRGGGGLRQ
# SMARCB1, Q12824, UniProt Q12824, whole entry: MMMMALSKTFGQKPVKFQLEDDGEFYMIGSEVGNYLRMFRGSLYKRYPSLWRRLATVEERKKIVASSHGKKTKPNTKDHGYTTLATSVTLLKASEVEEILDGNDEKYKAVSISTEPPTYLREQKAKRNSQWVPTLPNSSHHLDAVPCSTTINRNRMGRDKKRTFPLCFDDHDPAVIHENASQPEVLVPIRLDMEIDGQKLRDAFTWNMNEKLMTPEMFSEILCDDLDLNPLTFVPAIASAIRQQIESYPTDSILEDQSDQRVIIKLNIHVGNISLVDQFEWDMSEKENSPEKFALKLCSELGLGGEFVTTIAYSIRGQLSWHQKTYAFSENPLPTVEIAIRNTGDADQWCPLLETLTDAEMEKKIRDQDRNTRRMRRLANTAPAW
# SMARCE1, Q969G3, UniProt Q969G3, whole entry: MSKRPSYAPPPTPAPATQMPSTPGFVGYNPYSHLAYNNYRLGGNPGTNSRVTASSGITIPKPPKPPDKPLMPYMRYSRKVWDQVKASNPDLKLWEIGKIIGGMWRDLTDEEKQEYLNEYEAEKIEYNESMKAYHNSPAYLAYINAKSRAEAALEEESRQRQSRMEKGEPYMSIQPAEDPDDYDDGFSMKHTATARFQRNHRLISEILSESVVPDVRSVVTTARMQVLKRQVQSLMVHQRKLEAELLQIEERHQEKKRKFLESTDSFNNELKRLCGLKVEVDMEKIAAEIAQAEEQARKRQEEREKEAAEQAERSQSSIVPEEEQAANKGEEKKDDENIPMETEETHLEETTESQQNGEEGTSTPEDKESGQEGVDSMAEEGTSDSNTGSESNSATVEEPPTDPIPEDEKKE
# SRSF1, Q07955, UniProt Q07955, whole entry: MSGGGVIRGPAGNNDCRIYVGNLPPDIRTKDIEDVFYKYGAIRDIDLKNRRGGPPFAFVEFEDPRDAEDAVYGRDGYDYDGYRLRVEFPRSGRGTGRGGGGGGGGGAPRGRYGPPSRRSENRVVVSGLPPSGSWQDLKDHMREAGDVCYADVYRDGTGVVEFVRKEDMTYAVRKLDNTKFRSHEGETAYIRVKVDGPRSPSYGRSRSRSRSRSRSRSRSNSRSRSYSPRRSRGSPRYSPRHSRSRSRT
# TMEM97, Q5BJF2, UniProt Q5BJF2, whole entry: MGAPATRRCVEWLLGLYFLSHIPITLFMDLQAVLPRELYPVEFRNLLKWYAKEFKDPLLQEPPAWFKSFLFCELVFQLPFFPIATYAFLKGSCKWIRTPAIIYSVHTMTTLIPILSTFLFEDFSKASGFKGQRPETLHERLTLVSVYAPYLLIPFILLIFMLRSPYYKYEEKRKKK
# EIF5, P55010, UniProt P55010, whole entry: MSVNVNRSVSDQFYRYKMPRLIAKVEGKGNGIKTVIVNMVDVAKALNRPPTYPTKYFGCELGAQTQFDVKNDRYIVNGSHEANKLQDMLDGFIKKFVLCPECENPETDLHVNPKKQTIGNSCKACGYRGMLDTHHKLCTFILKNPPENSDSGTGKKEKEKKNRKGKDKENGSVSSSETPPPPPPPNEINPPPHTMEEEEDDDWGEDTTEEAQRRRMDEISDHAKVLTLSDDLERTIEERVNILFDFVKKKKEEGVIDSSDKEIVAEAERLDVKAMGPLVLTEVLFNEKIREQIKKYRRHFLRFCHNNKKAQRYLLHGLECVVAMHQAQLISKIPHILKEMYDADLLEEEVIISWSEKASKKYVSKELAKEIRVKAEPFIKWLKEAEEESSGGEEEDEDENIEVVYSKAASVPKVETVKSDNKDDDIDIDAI
# SNRPG, P62308, UniProt P62308, whole entry: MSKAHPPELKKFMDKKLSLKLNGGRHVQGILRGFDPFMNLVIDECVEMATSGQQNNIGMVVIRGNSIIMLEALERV
# The other results are listed elsewhere or left out. The list holds hits alone, and they repeat only in part.
# Assays:
# Assay in all cases: PRISMA enrichment of interactor (LFQ) in peptide spot vs all other peptide spots (log2 fold change); higher = stronger / more specific binding of the interactor to the peptide
# [1] = target: ATP6V0D1, P61421
# Experimental: (§1)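 PRISMA: 15-aa overlapping tiles (offset 8 aa) of 60 microproteins, plus SOS1/GLUT1 control peptides, were spot-synthesized on cellulose membranes in triplicate. Membranes were incubated with benzonase-treated HEK293T lysate, and bound proteins were identified by LC-MS/MS with LFQ. Enrichment is the log2 fold change of each protein in one spot versus all other spots. Only interactors passing the significance cutoff are listed.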
# [2] = target: CBFB, Q13951
# Experimental: as §1
# [3] = target: CKAP4, Q07065
# Experimental: as §1
# [4] = target: COIL, P38432
# Experimental: as §1
# [5] = target: COPS2, P61201
# Experimental: as §1
# [6] = target: DCTN1, Q14203
# Experimental: as §1
# [7] = target: DDX27, Q96GQ7
# Experimental: as §1
# [8] = target: DDX54, Q8TDD1
# Experimental: as §1
# [9] = target: DRG1, Q9Y295
# Experimental: as §1
# [10] = target: EIF2B4, Q9UI10
# Experimental: as §1
# [11] = target: EIF5B, O60841
# Experimental: as §1
# [12] = target: GATA3, P23771
# Experimental: as §1
# [13] = target: GATA6, Q92908
# Experimental: as §1
# [14] = target: GCLM, P48507
# Experimental: as §1
# [15] = target: GMPS, P49915
# Experimental: as §1
# [16] = target: HNRNPUL1, Q9BUJ2
# Experimental: as §1
# [17] = target: KRT18, P05783
# Experimental: as §1
# [18] = target: LRPAP1, P30533
# Experimental: as §1
# [19] = target: LYZ, P61626
# Experimental: as §1
# [20] = target: MAGEB2, O15479
# Experimental: as §1
# [21] = target: MARCKSL1, P49006
# Experimental: as §1
# [22] = target: MAT1A, Q00266
# Experimental: as §1
# [23] = target: MAT2A, P31153
# Experimental: as §1
# [24] = target: MRPL58, Q14197
# Experimental: as §1
# [25] = target: MRPS34, P82930
# Experimental: as §1
# [26] = target: NDUFA13, Q9P0J0
# Experimental: as §1
# [27] = target: NEDD8, Q15843
# Experimental: as §1
# [28] = target: NKAP, Q8N5F7
# Experimental: as §1
# [29] = target: NSUN5, Q96P11
# Experimental: as §1
# [30] = target: OSGEP, Q9NPF4
# Experimental: as §1
# [31] = target: POLR2C, P19387
# Experimental: as §1
# [32] = target: POP1, Q99575
# Experimental: as §1
# [33] = target: RAB5C, P51148
# Experimental: as §1
# [34] = target: RANGAP1, P46060
# Experimental: as §1
# [35] = target: SAFB, Q15424
# Experimental: as §1
# [36] = target: SIRT1, Q96EB6
# Experimental: as §1
# [37] = target: SMARCB1, Q12824
# Experimental: as §1
# [38] = target: SMARCE1, Q969G3
# Experimental: as §1
# [39] = target: SMC1A, Q14683
# Experimental: as §1
# [40] = target: SNRPA1, P09661
# Experimental: as §1
# [41] = target: SNX4, O95219
# Experimental: as §1
# [42] = target: SPTAN1, Q13813
# Experimental: as §1
# [43] = target: SRSF1, Q07955
# Experimental: as §1
# [44] = target: STAT1, P42224
# Experimental: as §1
# [45] = target: TBCD, Q9BTW9
# Experimental: as §1
# [46] = target: TBL2, Q9Y4P3
# Experimental: as §1
# [47] = target: TENT4B, Q8NDF8
# Experimental: as §1
# [48] = target: TMEM97, Q5BJF2
# Experimental: as §1
# [49] = target: TMPO
# Experimental: as §1
# [50] = target: YTHDC2, Q9H6S0
# Experimental: as §1
# [51] = target: YTHDF3, Q7Z739
# Experimental: as §1
# [52] = target: YWHAG, P61981
# Experimental: as §1
# [53] = target: ZFR, Q96KR1
# Experimental: as §1
# [54] = target: EIF5, P55010
# Experimental: as §1
# [55] = target: ELP1, O95163
# Experimental: as §1
# [56] = target: MPC2, O95563
# Experimental: as §1
# [57] = target: PUS1, Q9Y606
# Experimental: as §1
# [58] = target: RER1, O15258
# Experimental: as §1
# [59] = target: SNRPG, P62308
# Experimental: as §1
binder,measurement,setting,value
HRPASTYPSVLENRA [LINC01128],PRISMA enrichment of interactor (log2),[1],5.78
same,PRISMA enrichment of interactor (log2),[2],5.06
same,PRISMA enrichment of interactor (log2),[3],4.69
same,PRISMA enrichment of interactor (log2),[4],6.11
same,PRISMA enrichment of interactor (log2),[5],4.56
same,PRISMA enrichment of interactor (log2),[6],6.64
same,PRISMA enrichment of interactor (log2),[7],5.15
same,PRISMA enrichment of interactor (log2),[8],5.86
same,PRISMA enrichment of interactor (log2),[9],5.25
same,PRISMA enrichment of interactor (log2),[10],4.9
same,PRISMA enrichment of interactor (log2),[11],6.29
same,PRISMA enrichment of interactor (log2),[12],4.61
same,PRISMA enrichment of interactor (log2),[13],4.97
same,PRISMA enrichment of interactor (log2),[14],5.53
same,PRISMA enrichment of interactor (log2),[15],4.32
same,PRISMA enrichment of interactor (log2),[16],4.33
same,PRISMA enrichment of interactor (log2),[17],5.58
same,PRISMA enrichment of interactor (log2),[18],4.43
same,PRISMA enrichment of interactor (log2),[19],3.92
same,PRISMA enrichment of interactor (log2),[20],7.25
same,PRISMA enrichment of interactor (log2),[21],5.16
same,PRISMA enrichment of interactor (log2),[22],7.24
same,PRISMA enrichment of interactor (log2),[23],5.58
same,PRISMA enrichment of interactor (log2),[24],4.02
same,PRISMA enrichment of interactor (log2),[25],4.29
same,PRISMA enrichment of interactor (log2),[26],7.94
same,PRISMA enrichment of interactor (log2),[27],6.65
same,PRISMA enrichment of interactor (log2),[28],4.26
same,PRISMA enrichment of interactor (log2),[29],5.92
same,PRISMA enrichment of interactor (log2),[30],3.9
same,PRISMA enrichment of interactor (log2),[31],4.52
same,PRISMA enrichment of interactor (log2),[32],6.8
same,PRISMA enrichment of interactor (log2),[33],5.14
same,PRISMA enrichment of interactor (log2),[34],7.09
same,PRISMA enrichment of interactor (log2),[35],5.21
same,PRISMA enrichment of interactor (log2),[36],5.22
same,PRISMA enrichment of interactor (log2),[37],4.92
same,PRISMA enrichment of interactor (log2),[38],4.39
same,PRISMA enrichment of interactor (log2),[39],5.55
same,PRISMA enrichment of interactor (log2),[40],4.44
same,PRISMA enrichment of interactor (log2),[41],7.28
same,PRISMA enrichment of interactor (log2),[42],6.89
same,PRISMA enrichment of interactor (log2),[43],5.74
same,PRISMA enrichment of interactor (log2),[44],6.01
same,PRISMA enrichment of interactor (log2),[45],5.61
same,PRISMA enrichment of interactor (log2),[46],5.01
same,PRISMA enrichment of interactor (log2),[47],4.5
same,PRISMA enrichment of interactor (log2),[48],5.06
same,PRISMA enrichment of interactor (log2),[49],6.25
same,PRISMA enrichment of interactor (log2),[50],4.23
same,PRISMA enrichment of interactor (log2),[51],7.7
same,PRISMA enrichment of interactor (log2),[52],4.9
same,PRISMA enrichment of interactor (log2),[53],5.14
PVAPLFLHELLVGSP [PSMB8-AS1],PRISMA enrichment of interactor (log2),[1],7.04
same,PRISMA enrichment of interactor (log2),[54],4.56
same,PRISMA enrichment of interactor (log2),[55],4.76
same,PRISMA enrichment of interactor (log2),[56],4.34
same,PRISMA enrichment of interactor (log2),[57],5.11
same,PRISMA enrichment of interactor (log2),[58],4.36
same,PRISMA enrichment of interactor (log2),[59],6.03

# At a glance, some entries already given:
binder,measurement,setting,value
HRPASTYPSVLENRA [LINC01128],PRISMA enrichment of interactor (log2),[32],6.8
same,PRISMA enrichment of interactor (log2),[33],5.14
same,PRISMA enrichment of interactor (log2),[34],7.09
